Laboratory results from PubChem BioAssay AID330 (DTP/NCI, 2004).
The list shows only some results of the screen, not a fair sample: it is rich in T/C values a quarter to a half above the control, in often repeated tests (any T/C) and in doses without a T/C. Further doses and runs are listed elsewhere. T/C: endpoint of the treated group in % of that of the vehicle group. Some doses have a count of surviving animals in place of a T/C: the source files T/C as zero there, which appears to mark a toxic dose or a test without result, not a measured value. Some doses without a T/C left all or most animals alive at the check, yet need not have been tolerated: survival well below the control is almost never listed, so the zero probably covers shortened survival too. Counts of survivors are from the toxicity check (mostly the fifth day) where no day follows; animals may have died later. Schedule codes are those of the source, read here as Q, the interval in days (D) or hours (H), X, the number of doses. Some entries hold several experiments; their values stand side by side, smallest first. For survival time, the PubChem record calls one and a half times the control and up active, and a quarter to a half above the control has no call in these data; cut-offs in other NCI protocols can differ.

Test system: P388 leukemia ip, CD2F1 mice, survival T/C
Test: NCI In Vivo Anticancer Drug Screen. Data for tumor model P388 Leukemia (intraperitoneal) in CD2F1 (CDF1) mice
Conditions: T/C endpoint: median survival time, higher T/C = longer survival
[1] = dose: 100.0 mg/kg/injection, schedule: Q01DX001 (ip), vehicle: Klucel (hydroxypropylcellulose) (HPC)
[2] = dose: 400.0 mg/kg/injection, schedule: Q01DX001 (ip), vehicle: Klucel (hydroxypropylcellulose) (HPC)
[3] = dose: 50.0 mg/kg/injection, schedule: Q01DX009 (ip), vehicle: saline
[4] = dose: 200.0 mg/kg/injection, schedule: Q01DX009 (ip), vehicle: saline with Tween-80
[5] = dose: 100.0 mg/kg/injection, schedule: Q01DX009 (ip), vehicle: saline
[6] = dose: 200.0 mg/kg/injection, schedule: Q01DX009 (ip), vehicle: saline
[7] = dose: 200.0 mg/kg/injection, schedule: Q01DX009 (ip), vehicle: Klucel (hydroxypropylcellulose) (HPC)
[8] = dose: 240.0 mg/kg/injection, schedule: Q01DX005 (ip), vehicle: saline with Tween-80
[9] = dose: 0.19 mg/kg/injection, schedule: Q01DX009 (ip), vehicle: saline
[10] = dose: 200.0 mg/kg/injection, schedule: Q01DX005 (ip), vehicle: saline
[11] = dose: 240.0 mg/kg/injection, schedule: Q01DX005 (ip), vehicle: saline

In the case of `c1ccc(CCN2CCC3(CC2)CO3)cc1`, the survivor count [1] is reported as 2 of 6, the survivor count (dose: 200.0 mg/kg/injection, schedule: Q01DX001 (ip), vehicle: Klucel (hydroxypropylcellulose) (HPC)) is reported as 0 of 6 and the survivor count [2] is reported as 0 of 6.
`COC(=O)C1CCCCC1C(=O)OC` (centres undefined) was tested, and the T/C [3] was 135 % of control.
`COC1/C=C\OC2(C)Oc3c(C)c(O)c4c(O)c(c(/C=N/N(Cc5ccccc5)C56CC7CC(CC(C7)C5)C6)c(O)c4c3C2=O)NC(=O)/C(C)=C\C=C\C(C)C(O)C(C)C(O)C(C)C(OC(C)=O)C1C` (centres undefined) was tested, and the survivor count [4] was 6 of 6.
`Cc1cccc(C(=O)CC[N+](C)(C)C)c1` was tested, and the survivor count [3] was 3 of 6, the survivor count [5] was 0 of 6 and the survivor count [6] was 0 of 6.
In the case of `CN(C)N=Nc1cccc(C(N)=O)c1`, the survivor count [7] is reported as 2 of 6.
In the case of `CCS/C(C#N)=C/c1ccccc1`, the survivor count [4] is reported as 3 of 6.
With `O=c1c2cc(O)c(O)cc2oc2cc(O)c(C3OC(CO)C(O)C(O)C3O)c(O)c12` (centres undefined) the T/C (dose: 200.0 mg/kg/injection, schedule: Q01DX001 (ip), vehicle: saline) was 135 % of control.
For `OC1(c2ccc(CCc3ccc(C4(O)C(c5ccccc5)=C(c5ccccc5)C(c5ccccc5)=C4c4ccccc4)cc3)cc2)C(c2ccccc2)=C(c2ccccc2)C(c2ccccc2)=C1c1ccccc1`, the survivor count [1] was 6 of 6 and the survivor count [2] was 6 of 6.
`CN(CCO)c1ccc([N+](=O)[O-])c2nonc12` was tested, and the T/C (dose: 100.0 mg/kg/injection, schedule: Q04DX002 (ip), vehicle: saline) was 145 % of control.
For `[Cr+6].[NH-]CCC[NH-].[NH-]CCC[NH-].[NH-]CCC[NH-]`, the T/C (dose: 100.0 mg/kg/injection, schedule: Q01DX001 (ip), vehicle: saline) was 145 % of control.
`CCOC(=O)C(SC#N)[Se]c1ccccc1` (centres undefined) was tested, and the survivor count (dose: 200.0 mg/kg/injection, schedule: Q01DX005 (ip), vehicle: saline with Tween-80) was 2 of 6.
In the case of `CC[C@@H]1C[C@H]2CC3c4[nH]c5ccc(O)cc5c4CCN(C2)C31`, the survivor count (dose: 200.0 mg/kg/injection, schedule: Q01DX001 (ip), vehicle: saline with Tween-80) is reported as 0 of 6 and the survivor count (dose: 400.0 mg/kg/injection, schedule: Q01DX001 (ip), vehicle: saline with Tween-80) is reported as 0 of 6.
With `COc1cccc2c1C(=O)c1c(O)c3c(c(O)c1C2=O)CC(OC1CC(N)C(O)C(C)O1)(C(C)=O)CC3OC1CC(N)C(O)C(C)O1` (centres undefined) the T/C (dose: 25.0 mg/kg/injection, schedule: Q01DX009 (ip), vehicle: water) was 137 % of control.
`CN(C)c1ccc(/C=C/c2ccnc3ccc(Cl)cc23)cc1` was tested, and the T/C (dose: 50.0 mg/kg/injection, schedule: Q01DX009 (ip), vehicle: saline with Tween-80) was 137 % of control, the survivor count (dose: 100.0 mg/kg/injection, schedule: Q01DX009 (ip), vehicle: saline with Tween-80) was 6 of 6 and the survivor count [4] was 6 of 6.
In the case of `CN1c2ccccc2C(=O)N2C(=O)CCC21C` (centres undefined), the survivor count [8] is reported as 0 of 6.
For `O=c1nc2c3[nH]cnc3ncn2o1`, the survivor count [7] was 3 of 6.
`Cc1c(C)c(=O)c2cc3c(=O)ccc(=O)c3cc2c1=O` was tested, and the survivor count (dose: 100.0 mg/kg/injection, schedule: Q04DX003 (ip), vehicle: Klucel (hydroxypropylcellulose) (HPC)) was 2 of 6, the survivor count (dose: 200.0 mg/kg/injection, schedule: Q04DX003 (ip), vehicle: Klucel (hydroxypropylcellulose) (HPC)) was 0 of 6 and the survivor count (dose: 400.0 mg/kg/injection, schedule: Q04DX003 (ip), vehicle: Klucel (hydroxypropylcellulose) (HPC)) was 0 of 6.
With `CC1(C)NNC(=S)NN1` the survivor count (dose: 30.0 mg/kg/injection, schedule: Q01DX005 (ip), vehicle: saline with Tween-80) was 2 of 6 and 3 of 6, the survivor count (dose: 60.0 mg/kg/injection, schedule: Q01DX005 (ip), vehicle: saline with Tween-80) was 0 of 6 and the survivor count (dose: 120.0 mg/kg/injection, schedule: Q01DX005 (ip), vehicle: saline with Tween-80) was 0 of 6. For the same molecule, the survivor count [8] was 0 of 6.
With `CCCCCCCCCCCCCC[N+]1(CC)CCCCCC1` the T/C (dose: 0.09 mg/kg/injection, schedule: Q01DX009 (ip), vehicle: saline) was 88, 95, 102, 117 % of control, the T/C [9] was 89, 99, 113 % of control and the survivor count [9] was 6 of 6. For the same molecule, the T/C (dose: 0.39 mg/kg/injection, schedule: Q01DX009 (ip), vehicle: saline) was 89, 90, 91, 117, 120 % of control, the survivor count (dose: 0.78 mg/kg/injection, schedule: Q01DX009 (ip), vehicle: saline) was 3 of 6 and the survivor count (dose: 1.56 mg/kg/injection, schedule: Q01DX009 (ip), vehicle: saline) was 2 of 6. For the same molecule, the survivor count (dose: 3.12 mg/kg/injection, schedule: Q01DX009 (ip), vehicle: saline) was 2 of 6, the survivor count (dose: 6.25 mg/kg/injection, schedule: Q01DX009 (ip), vehicle: saline) was 0 of 6 and the survivor count (dose: 12.5 mg/kg/injection, schedule: Q01DX009 (ip), vehicle: saline) was 0 of 6. The survivor count [3] was 0 of 6, the survivor count [5] was 0 of 6 and the survivor count [6] was 0 of 6.
In the case of `COC(=O)C1=NC(=N)N=C(C(=O)OC)C12C(=O)Cc1ccccc12` (centres undefined), the survivor count [8] is reported as 0 of 6.
With `CCCCN(CCNc1cc(OC)cc2cccnc12)C1CCCC1` the survivor count [10] was 0 of 5.
In the case of `CC(=O)OC1CC(C)(O)Cc2cc3c(c(O)c21)C(=O)c1c(O)cc2c(c1C3=O)OC1OC2(C)C(O)C(N(C)C)C1O` (centres undefined), the T/C (dose: 0.87 mg/kg/injection, schedule: Q01DX009 (ip), vehicle: other) is reported as 133 % of control and the T/C (dose: 1.75 mg/kg/injection, schedule: Q01DX009 (ip), vehicle: other) is reported as 144 % of control.
In the case of `C/C(=N\N=C(/N)N1CCCC1)c1ccc2c(c1)Cc1cc(/C(C)=N/N=C(\N)N3CCCC3)ccc1-2`, the survivor count (dose: 100.0 mg/kg/injection, schedule: Q04DX002 (ip), vehicle: saline with Tween-80) is reported as 0 of 6.
`C=CC1CN2CCC1CC2C(O)c1ccnc2ccccc12` (centres undefined) was tested, and the survivor count [11] was 0 of 6.
`CCCNC1(N(C)C)N=C(N(C)C)N=C(N(C)C)O1` (centres undefined) was tested, and the survivor count [10] was 0 of 6.
In the case of `CCCCCCCCCCC(=O)[O][Sn]([CH](C)C)([CH](C)C)[CH](C)C`, the survivor count (dose: 50.0 mg/kg/injection, schedule: Q01DX009 (ip), vehicle: saline + Tween-80 + alcohol) is reported as 0 of 6, the survivor count (dose: 100.0 mg/kg/injection, schedule: Q01DX009 (ip), vehicle: saline + Tween-80 + alcohol) is reported as 0 of 6 and the survivor count (dose: 200.0 mg/kg/injection, schedule: Q01DX009 (ip), vehicle: saline + Tween-80 + alcohol) is reported as 0 of 6.
`COC(=O)Nc1nc2c(OC)c(OC)c(OC)cc2[nH]1` was tested, and the survivor count (dose: 200.0 mg/kg/injection, schedule: Q01DX005 (ip), vehicle: other) was 6 of 6.
In the case of `O=C(O)C1=C(C(=O)O)CCC1`, the survivor count (dose: 200.0 mg/kg/injection, schedule: Q01DX009 (ip), vehicle: distilled water + Tween-80) is reported as 0 of 6 and the survivor count (dose: 400.0 mg/kg/injection, schedule: Q01DX009 (ip), vehicle: distilled water + Tween-80) is reported as 0 of 6.
`Cc1nc2c(c(-c3ccc(Cl)cc3)n1)Cc1c(ccc3ccccc13)O2` was tested, and the survivor count [5] was 6 of 6.
For `COC1=C(OC)C(=O)C(N(C)C)=C(CO)C1=O`, the T/C [11] was 131 % of control and the survivor count [11] was 1 of 6.
